The source of these data is article PMC12270201.

By UniProt entry, the sequences of proteins in these tests, tags left out. Where a name states a change or a piece, a line headed by the entry shows the natural chain unless it says otherwise. Residues count along the entry.
UniProt Q86VE9: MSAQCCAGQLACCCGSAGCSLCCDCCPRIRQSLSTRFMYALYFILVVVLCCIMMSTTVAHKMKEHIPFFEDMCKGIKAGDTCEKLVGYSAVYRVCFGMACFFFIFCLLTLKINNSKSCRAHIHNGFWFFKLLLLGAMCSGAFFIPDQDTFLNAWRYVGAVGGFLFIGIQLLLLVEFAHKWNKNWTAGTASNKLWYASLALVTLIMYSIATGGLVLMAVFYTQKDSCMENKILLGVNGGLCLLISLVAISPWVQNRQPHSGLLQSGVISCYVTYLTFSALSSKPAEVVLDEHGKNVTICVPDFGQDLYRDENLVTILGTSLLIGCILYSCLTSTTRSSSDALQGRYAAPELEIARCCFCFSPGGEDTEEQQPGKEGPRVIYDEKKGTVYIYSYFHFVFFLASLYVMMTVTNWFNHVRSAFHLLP
UniProt P78536: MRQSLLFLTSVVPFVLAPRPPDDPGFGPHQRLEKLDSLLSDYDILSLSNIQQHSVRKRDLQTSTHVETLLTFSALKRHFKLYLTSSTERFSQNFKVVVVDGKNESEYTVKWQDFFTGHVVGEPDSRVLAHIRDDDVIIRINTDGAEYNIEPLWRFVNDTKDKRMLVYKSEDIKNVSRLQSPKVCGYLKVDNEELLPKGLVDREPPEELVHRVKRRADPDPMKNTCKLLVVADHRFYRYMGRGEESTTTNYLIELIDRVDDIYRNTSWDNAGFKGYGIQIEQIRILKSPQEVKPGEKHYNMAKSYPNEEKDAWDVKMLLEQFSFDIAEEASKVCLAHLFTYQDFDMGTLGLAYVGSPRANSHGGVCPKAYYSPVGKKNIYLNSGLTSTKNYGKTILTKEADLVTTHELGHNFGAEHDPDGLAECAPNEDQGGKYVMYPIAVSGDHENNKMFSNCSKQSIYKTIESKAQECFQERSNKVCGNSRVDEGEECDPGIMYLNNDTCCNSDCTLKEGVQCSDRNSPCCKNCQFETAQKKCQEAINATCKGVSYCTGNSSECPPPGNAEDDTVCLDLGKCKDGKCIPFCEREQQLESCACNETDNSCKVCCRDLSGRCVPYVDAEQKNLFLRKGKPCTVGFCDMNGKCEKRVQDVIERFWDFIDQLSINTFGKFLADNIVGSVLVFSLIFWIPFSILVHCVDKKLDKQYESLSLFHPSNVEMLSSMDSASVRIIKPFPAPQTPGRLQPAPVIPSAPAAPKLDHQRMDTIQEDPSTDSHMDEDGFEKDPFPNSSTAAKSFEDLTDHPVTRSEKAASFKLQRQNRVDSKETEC
UniProt Q13444: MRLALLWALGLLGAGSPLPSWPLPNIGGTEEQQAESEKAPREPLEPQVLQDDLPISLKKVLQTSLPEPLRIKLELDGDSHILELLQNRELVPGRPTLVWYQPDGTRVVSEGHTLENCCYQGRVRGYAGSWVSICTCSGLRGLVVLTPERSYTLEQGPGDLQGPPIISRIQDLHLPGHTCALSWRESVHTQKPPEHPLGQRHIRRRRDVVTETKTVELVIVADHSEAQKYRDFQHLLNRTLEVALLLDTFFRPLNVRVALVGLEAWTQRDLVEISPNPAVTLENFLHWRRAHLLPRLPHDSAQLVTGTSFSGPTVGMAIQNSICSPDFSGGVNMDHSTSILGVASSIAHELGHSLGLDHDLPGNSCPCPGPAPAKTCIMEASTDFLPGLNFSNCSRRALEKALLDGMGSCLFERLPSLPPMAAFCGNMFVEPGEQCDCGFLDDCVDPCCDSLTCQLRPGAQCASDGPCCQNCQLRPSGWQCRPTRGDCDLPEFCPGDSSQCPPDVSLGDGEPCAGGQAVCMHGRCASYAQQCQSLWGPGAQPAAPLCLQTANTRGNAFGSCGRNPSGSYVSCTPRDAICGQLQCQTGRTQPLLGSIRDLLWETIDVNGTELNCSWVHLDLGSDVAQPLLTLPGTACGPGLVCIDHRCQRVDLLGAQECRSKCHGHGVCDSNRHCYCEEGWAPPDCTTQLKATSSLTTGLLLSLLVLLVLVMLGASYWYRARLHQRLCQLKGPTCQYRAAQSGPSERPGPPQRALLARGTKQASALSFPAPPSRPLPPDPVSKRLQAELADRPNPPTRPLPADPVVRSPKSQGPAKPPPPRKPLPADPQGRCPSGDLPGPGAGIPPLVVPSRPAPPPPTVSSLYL
UniProt Q13443, residues 29-819: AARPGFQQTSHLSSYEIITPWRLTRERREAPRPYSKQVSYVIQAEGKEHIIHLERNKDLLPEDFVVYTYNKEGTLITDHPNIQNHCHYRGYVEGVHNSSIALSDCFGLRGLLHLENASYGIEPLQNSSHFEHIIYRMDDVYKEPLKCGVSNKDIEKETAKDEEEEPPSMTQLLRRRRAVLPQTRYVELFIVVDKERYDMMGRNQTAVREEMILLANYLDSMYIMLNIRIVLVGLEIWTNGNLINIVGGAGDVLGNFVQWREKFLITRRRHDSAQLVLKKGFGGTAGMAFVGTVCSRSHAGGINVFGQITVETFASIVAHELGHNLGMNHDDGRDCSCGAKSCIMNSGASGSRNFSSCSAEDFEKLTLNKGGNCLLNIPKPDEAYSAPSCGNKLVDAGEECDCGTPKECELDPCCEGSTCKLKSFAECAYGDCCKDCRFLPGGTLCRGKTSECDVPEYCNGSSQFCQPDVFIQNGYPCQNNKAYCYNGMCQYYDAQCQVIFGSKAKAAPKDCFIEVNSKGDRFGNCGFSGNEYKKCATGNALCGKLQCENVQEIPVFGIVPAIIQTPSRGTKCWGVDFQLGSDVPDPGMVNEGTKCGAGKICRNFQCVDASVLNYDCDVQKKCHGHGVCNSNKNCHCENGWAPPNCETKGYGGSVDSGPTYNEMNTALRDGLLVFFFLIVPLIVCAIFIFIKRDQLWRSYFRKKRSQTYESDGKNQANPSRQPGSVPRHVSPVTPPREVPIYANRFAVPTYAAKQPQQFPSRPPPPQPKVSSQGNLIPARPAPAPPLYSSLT

The target in assay [1] is SERINC5 with a C-terminal FLAG-VC tag (Ser5-FLAG-VC) (UniProt Q86VE9). The experiment in a line: split reporter; BiFC: VN-HA fusion and FLAG-VC fusion co-expressed in HeLa cells, confocal microscopy; VN-HA fusion stained with anti-HA.
For assay [2], the target named is ectopically expressed ADAM17 (co-IP of Fig. S2) (human) (UniProt P78536). The experiment in a line: co-IP; Fig. S2, reverse: A17 or GFP precipitated, Ser5 detected.
In assay [3] the target is FLAG-tagged SERINC5 (Ser5-FLAG) (UniProt Q86VE9). The assay can be described thus: co-IP; Ser5-FLAG expressed in HEK293T, immunoprecipitated with anti-FLAG beads; endogenous ADAM proteins detected with their specific antibodies by Western blotting. (Immunoblotting shows a protein as a band on a membrane.)

Results are given in words; binding and its absence hold for the method and conditions named. In cells and extracts the contact can be indirect. Binding calls can cover weak binding; strength is not graded here.

For the substance “ADAM15 with a C-terminal VN-HA tag (A15-VN-HA) (from UniProt Q13444)”, the binding entry in assay [1] is “binds”. Consider “FLAG-tagged SERINC5 (Ser5-FLAG) (from UniProt Q86VE9-4)”, for which the binding result in assay [2] was “binds”. Regarding “endogenous ADAM9 (from UniProt Q13443 29-819)”, the binding result in assay [3] was “binds”. The same measure, in the same setting: the same measure for endogenous ADAM15 (from UniProt Q13444): “binds”.
